In publication PMC10576046:
Results are given in words; binding and its absence hold for the method and conditions named. Binding seen in cells or lysates may run through a third protein. Some results given as binding are weak or reduced against the parent protein; the word gives no strength.

Sequences of proteins named here, by UniProt entry; tags and fusion partners are left off.
UniProt Q96AC1: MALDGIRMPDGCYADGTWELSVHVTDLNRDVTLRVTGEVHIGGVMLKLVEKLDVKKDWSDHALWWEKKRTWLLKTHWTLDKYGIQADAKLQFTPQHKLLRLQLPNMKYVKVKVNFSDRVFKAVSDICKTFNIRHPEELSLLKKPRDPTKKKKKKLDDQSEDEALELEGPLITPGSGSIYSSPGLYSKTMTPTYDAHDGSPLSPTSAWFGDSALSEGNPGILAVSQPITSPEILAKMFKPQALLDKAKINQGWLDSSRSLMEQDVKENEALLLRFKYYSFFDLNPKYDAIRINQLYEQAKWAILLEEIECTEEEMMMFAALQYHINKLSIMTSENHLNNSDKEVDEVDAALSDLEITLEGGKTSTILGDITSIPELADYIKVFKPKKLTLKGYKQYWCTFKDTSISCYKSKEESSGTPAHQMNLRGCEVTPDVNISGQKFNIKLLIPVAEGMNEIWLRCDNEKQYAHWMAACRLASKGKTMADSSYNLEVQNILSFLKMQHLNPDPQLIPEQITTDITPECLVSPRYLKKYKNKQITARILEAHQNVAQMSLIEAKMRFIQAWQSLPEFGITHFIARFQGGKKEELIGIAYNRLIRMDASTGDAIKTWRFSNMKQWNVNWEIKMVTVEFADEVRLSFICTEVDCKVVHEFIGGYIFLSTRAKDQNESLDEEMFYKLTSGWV
UniProt P40763: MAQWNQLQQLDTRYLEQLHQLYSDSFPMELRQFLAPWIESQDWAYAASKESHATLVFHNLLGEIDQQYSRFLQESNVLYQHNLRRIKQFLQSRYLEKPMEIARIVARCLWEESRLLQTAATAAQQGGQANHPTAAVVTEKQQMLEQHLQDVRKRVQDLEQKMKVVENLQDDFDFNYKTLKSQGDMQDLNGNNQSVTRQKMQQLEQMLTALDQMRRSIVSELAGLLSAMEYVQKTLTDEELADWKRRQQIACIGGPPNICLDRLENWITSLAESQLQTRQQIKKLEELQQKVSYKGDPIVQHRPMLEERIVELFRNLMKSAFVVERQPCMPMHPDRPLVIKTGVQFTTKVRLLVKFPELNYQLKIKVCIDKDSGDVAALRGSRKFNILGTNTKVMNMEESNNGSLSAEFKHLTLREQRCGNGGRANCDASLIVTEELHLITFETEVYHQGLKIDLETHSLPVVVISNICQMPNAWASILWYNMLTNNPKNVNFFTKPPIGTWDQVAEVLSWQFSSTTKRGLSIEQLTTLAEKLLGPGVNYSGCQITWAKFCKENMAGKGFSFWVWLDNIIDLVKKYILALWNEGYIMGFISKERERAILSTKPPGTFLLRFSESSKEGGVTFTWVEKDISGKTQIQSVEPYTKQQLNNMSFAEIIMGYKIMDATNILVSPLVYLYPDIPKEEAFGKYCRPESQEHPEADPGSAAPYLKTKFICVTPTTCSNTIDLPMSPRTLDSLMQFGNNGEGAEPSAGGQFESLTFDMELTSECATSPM

Key:
[1] = biological target: Kindlin-2 (human (endogenous in MDA-MB-231 and HEK293T)) (UniProt Q96AC1); assay: co-IP; MDA-MB-231 cell lysate (RIPA buffer); precipitated with anti-Kindlin-2 antibody or control IgG, protein A or G agarose, blotted with anti-STAT3
[2] = biological target: Kindlin-2 (human (endogenous in MDA-MB-231 and HEK293T)) (UniProt Q96AC1); assay: co-IP; HEK293T cell lysate (RIPA buffer); precipitated with anti-Kindlin-2 antibody or control IgG, protein A or G agarose, blotted with anti-STAT3

Substance: STAT3 (from UniProt P40763 1-770)
- binding [1]: binds
- binding [2]: binds
